Earlier results on one compound are cited in article PMC6061700 (Toxicological Sciences, 2018).

Marks after values point to notes of the source that are not given here.

The conditions of the data set: free clinical Cmax; ref Kramer et al. (2013); cited from earlier work.

Take `COC(=O)C1=C(C)NC(C)=C(C(=O)OC)C1c1ccccc1[N+](=O)[O-]` [Nifedipine]: the “Free Drug (free Cmax)” value was 0.008* µM.
